Results are given in words; binding and its absence hold for the method and conditions named. Binding calls can cover weak binding; strength is not graded here.
Columns and labels:
[1] = molecular target: human vitronectin receptor αvβ3 purified from human placenta (human); assay: ELISA and BIAcore, COS cell supernatants
[2] = molecular target: human vitronectin receptor αvβ3 purified from human placenta (human); assay: ORIGEN competition (FIG. 7)
[3] = molecular target: human vitronectin receptor αvβ3 purified from human placenta (human); assay: ORIGEN binding to αvβ3 (FIG. 2)
[4] = molecular target: human vitronectin receptor αvβ3 purified from human placenta (human); assay: solid phase ELISA, purified human placenta αvβ3 on plate
[5] = molecular target: human vitronectin receptor αvβ3 purified from human placenta (human); assay: ORIGEN competition: competing antibody against 1 ug/ml LM609 for 1 ug/ml αvβ3
[6] = molecular target: human vitronectin receptor αvβ3 purified from human placenta (human); assay: ORIGEN electrochemiluminescence binding assay on αvβ3
[7] = molecular target: human vitronectin receptor αvβ3 purified from human placenta (human); assay: ORIGEN; αvβ3-biotin preincubated with unlabeled LM609 or D12, then Tag-LM609 (FIG. 6)

Measured: binding

B1: humanized D12 antibody HZ-D12 (IgG1) (antibody, V domains shown)
VH: QVQLVQSGAEVKKPGASVKVSCKASGYAFTSYNMYWVRQAPGQGLEWIGYIDPYNGDTFYNQKFKGKATLTVDKSTSTAYMELSSLRSEDTAVYYCARQNYGSFAYWGQGTLVTVSS
VL: DIVLTQSPGTLSLSPGERATLSCRASQSISNHLHWYQQKPGQAPRLLIKYASQSISGIPSRFSGSGSGTDFTLTISRLEPEDFAVYYCQQSNSWPFTFGQGTKVEIK
binds: [1]

B2: murine monoclonal antibody D12 (antibody, V domains shown)
VH: EIQLQQSGPEVVKPGASVKVSCKASGYAFTSYNMYWVKQSHGKSLEWIGYIDPYNGDTFYNQKFKGKATLTVDKSSSTAYMHLNSLTSEDSAVFYCARQNYGSFAYWGQGTLVTVSA
VL: DIVLTQSPATLSVTPGDSVSLSCRASQSISNHLHWYQQRSHESPRLLIKYASQSISGIPSRFRGSGSGTDFTLNINILETEDFGMYFCQQSNSWPFTFGSGTNLEIKR
not listed: [1]
binds: all other assays above

Reference: patent publication US20030152571A1
